Literature values, collected in US8779090B2, “Methods and compositions for the treatment of heart failure and other disorders” (Ironwood Pharmaceuticals, Inc., priority 2007, dated 2014).
Some results were stated once for a whole list of compounds, not compound by compound. Some ranges recur; such a range may be that of the whole group of compounds.

Chains of the proteins cited; added tags and fusions are not shown. Lines headed by an entry give the natural chain unless they say otherwise; changes in a name come on top. Residues count along the entry.
UniProt P25092, 24-1073: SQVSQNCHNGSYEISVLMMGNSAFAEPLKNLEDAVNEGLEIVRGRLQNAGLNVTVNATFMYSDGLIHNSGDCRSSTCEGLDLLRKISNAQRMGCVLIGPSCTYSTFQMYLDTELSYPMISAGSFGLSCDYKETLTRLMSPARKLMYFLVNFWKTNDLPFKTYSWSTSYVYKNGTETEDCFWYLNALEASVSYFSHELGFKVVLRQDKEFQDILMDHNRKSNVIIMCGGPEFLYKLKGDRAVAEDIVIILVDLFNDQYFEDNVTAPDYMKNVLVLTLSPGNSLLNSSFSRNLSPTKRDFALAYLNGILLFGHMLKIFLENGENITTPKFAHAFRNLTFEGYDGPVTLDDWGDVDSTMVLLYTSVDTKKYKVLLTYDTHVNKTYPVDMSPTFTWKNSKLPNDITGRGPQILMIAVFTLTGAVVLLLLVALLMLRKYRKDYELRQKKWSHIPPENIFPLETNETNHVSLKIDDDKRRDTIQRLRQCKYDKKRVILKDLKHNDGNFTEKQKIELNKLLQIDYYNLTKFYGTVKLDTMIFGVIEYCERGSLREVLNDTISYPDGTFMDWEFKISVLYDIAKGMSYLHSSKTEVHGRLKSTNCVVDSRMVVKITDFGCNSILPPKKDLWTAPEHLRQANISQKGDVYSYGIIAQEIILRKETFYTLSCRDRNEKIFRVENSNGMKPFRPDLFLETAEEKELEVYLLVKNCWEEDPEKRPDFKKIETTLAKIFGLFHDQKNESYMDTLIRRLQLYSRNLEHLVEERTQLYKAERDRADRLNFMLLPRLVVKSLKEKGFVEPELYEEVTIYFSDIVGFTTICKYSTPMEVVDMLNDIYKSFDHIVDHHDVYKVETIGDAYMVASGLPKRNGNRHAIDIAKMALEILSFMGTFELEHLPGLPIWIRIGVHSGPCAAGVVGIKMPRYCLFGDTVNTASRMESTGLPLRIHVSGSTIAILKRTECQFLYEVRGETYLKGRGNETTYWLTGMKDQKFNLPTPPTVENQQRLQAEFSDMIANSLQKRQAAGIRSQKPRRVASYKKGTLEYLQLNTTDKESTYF
UniProt Q02747: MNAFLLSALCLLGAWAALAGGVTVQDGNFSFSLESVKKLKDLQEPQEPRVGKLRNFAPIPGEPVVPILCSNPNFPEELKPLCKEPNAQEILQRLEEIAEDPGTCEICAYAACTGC
UniProt Q16661: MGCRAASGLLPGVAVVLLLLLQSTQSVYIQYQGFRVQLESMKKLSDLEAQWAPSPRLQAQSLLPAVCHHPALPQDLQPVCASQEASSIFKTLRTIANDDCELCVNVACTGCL

Target: GC-C receptor (Homo sapiens, UniProt P25092)
Conditions: relative potency versus bacterially derived ST peptides (reviewed in Gianella 1995)

Row | Substance | fold less potent than ST peptides
1 | guanylin: endogenous hormone that activates the GC-C receptor in humans (PGTCEICAYAACTGC; Guanylin; UniProt Q02747 101-115, looked up) | 10-100 fold
2 | lymphoguanylin | 10-100 fold
3 | uroguanylin: endogenous hormone that activates the GC-C receptor in humans (NDDCELCVNVACTGCL; Uroguanylin; UniProt Q16661 97-112, looked up) | 10-100 fold
